Results reported in patent US20250154171A1, “RAS INHIBITORS” (Revolution Medicines, Inc., priority 2023, published 2025).
Some of these results come from one statement about several compounds together.

The chains behind the UniProt entries cited, without tags or fusion partners. Where a name states a change or a piece, a line headed by the entry shows the natural chain unless it says otherwise. Residues count along the entry.
UniProt P01116, 1-188 isoform P01116-2 G12V: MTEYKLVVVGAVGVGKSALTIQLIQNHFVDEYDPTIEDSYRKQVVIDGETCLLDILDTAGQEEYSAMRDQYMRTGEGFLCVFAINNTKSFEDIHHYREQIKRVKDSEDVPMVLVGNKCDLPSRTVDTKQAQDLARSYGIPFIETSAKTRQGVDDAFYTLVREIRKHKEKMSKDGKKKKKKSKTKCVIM
UniProt P62937, whole entry: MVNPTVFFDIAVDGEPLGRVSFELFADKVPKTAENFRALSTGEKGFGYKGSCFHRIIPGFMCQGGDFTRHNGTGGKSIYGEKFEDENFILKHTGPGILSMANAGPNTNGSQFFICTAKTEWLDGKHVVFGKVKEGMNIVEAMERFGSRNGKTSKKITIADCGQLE

Experiments:
K-RasG12V = K-RasG12V (Homo sapiens, UniProt P01116+P62937, G12V); assay: Disruption of BRAF RBD interaction with K-Ras (TR-FRET / MOA assay), K-RasG12V; assay type: biochemical; details: TR-FRET with cyclophilin A and GST-BRAF RBD, read-out: IC50 with respect to K-RasG12V (disruption of BRAF RBD interaction)
Capan-1 (K-Ras G12V) = assay: CellTiter-Glo cell viability assay, Capan-1; assay type: cell-based, human; details: 5-day treatment, Capan-1 versus A375

| Structure (SMILES) | IC50 (K-RasG12V) [nM] | decrease in cell viability with respect to KRAS G12V (Capan-1) versus wild-type KRAS (A375) (Capan-1 (K-Ras G12V)) |
| --- | --- | --- |
| CO[C@@H](C)c1ncc(C2CCN(C3CC3)CC2)cc1-c1c2c3cc(ccc3n1CCO[C@H]1CCOC(C)(C)C1)-c1csc(n1)[C@@H](N1CC3(CCCOC3)C1)[C@H](NC(=O)[C@@H]1OC[C@@H]1C)C(=O)N1CCC[C@H](N1)C(=O)OCC(C)(C)C2 (racemic) [Example A180] | < 1000 | greater decrease in cell viability |
| CO[C@@H](C)c1ncc(C2CCN(C3CC3)CC2)cc1-c1c2c3cc(ccc3n1CCO[C@H]1CCOC(C)(C)C1)-c1csc(n1)[C@@H](N1CC3(CCCOC3)C1)[C@H](NC(=O)[C@H]1OC[C@@H]1C)C(=O)N1CCC[C@H](N1)C(=O)OCC(C)(C)C2 (racemic) [Example A181] | < 1000 | greater decrease in cell viability |
| CCO[C@@H]1c2nc(cs2)-c2ccc3c(c2)c(c(-c2cc(C4CCN(C5CC5)CC4)cnc2[C@H](C)OC)n3CCO[C@H]2CCOC(C)(C)C2)CC(C)(C)COC(=O)C2NN(C(=O)[C@H]1NC(=O)C13CC(C)(C1)[C@H](C)O3)C1CC2C1 (mixture of isomers) [Example A186] | < 1000 | greater decrease in cell viability |
| CO[C@@H](C)c1ncc(C2CCN(C3CC3)CC2)cc1-c1c2c3cc(ccc3n1CCO[C@H]1CCOC(C)(C)C1)-c1csc(n1)[C@@H](N1CCCC1)[C@H](NC(=O)C13CC(C)(C1)[C@@H](C)O3)C(=O)N1N[C@H](C(=O)OCC(C)(C)C2)C2CC1C2 (racemic) [Example A187] | < 1000 | greater decrease in cell viability |
| CO[C@@H](C)c1ncc(C2CCN(C3CC3)CC2)cc1-c1c2c3cc(ccc3n1CCO[C@H]1CCOC(C)(C)C1)-c1csc(n1)[C@@H](N1CCCC1)[C@H](NC(=O)C13CC(C)(C1)[C@H](C)O3)C(=O)N1N[C@H](C(=O)OCC(C)(C)C2)C2CC1C2 (racemic) [Example A188] | < 1000 | greater decrease in cell viability |
| CO[C@@H](C)c1ncc(C2CCN(C3CC3)CC2)cc1-c1c2c3cc(ccc3n1CCO[C@H]1CCOC(C)(C)C1)-c1csc(n1)[C@@H](N1CCCC1)[C@H](NC(=O)C13CC(C)(C1)[C@@H](C)O3)C(=O)N1CCC[C@H](N1)C(=O)OCC(C)(C)C2 (racemic) [Example A189] | < 1000 | greater decrease in cell viability |
| C[C@@H]1OCCOCCn2c(c3c4cc(ccc42)-c2csc(n2)C(N2CC4(COC4)C2)[C@H](NC(=O)[C@H]2OC[C@@H]2C)C(=O)N2CCC[C@H](N2)C(=O)OCC(C)(C)C3)-c2cc(N3CCN(C4CC4)CC3)cnc21 (mixture of isomers) [Example A193] | < 1000 | greater decrease in cell viability |
| CO[C@@H](C)c1ncccc1-c1c2c3cc(ccc3n1C1COC1)-c1csc(n1)[C@@H](N1CC3(CCCO3)C1)[C@H](NC(=O)[C@H]1[C@H](C)[C@@H]1C)C(=O)N1CCC[C@H](N1)C(=O)OCC(C)(C)C2 (racemic) [Example A194] | < 1000 | greater decrease in cell viability |
| [2H]C([2H])([2H])[C@H]1OC2(C(=O)N[C@@H]3C(=O)N4N[C@H](C(=O)OCC(C)(C)Cc5c(-c6cccnc6[C@H](C)OC)n(C6COC6)c6ccc(cc56)-c5csc(n5)[C@H]3N3CC5(COC5)C3)C3CC4C3)CC1(C)C2 (racemic) [Example A195] | < 1000 | greater decrease in cell viability |
| CO[C@@H](C)c1ncc(N2CCN(C3CC3)CC2)cc1-c1c2c3cc(ccc3n1CCOC1CCOCC1)-c1csc(n1)[C@@H](N1CCCC1)[C@H](NC(=O)[C@@H]1C[C@@H](C)O1)C(=O)N1CCC[C@H](N1)C(=O)OCC(C)(C)C2 (racemic) [Example A199] | < 1000 | greater decrease in cell viability |
| CO[C@@H](C)c1ncc(N2CCN(C3CC3)CC2)cc1-c1c2c3cc(ccc3n1CCOC1CCOCC1)-c1csc(n1)[C@@H](N1CCCC1)[C@H](NC(=O)[C@H]1C[C@@H](C)O1)C(=O)N1CCC[C@H](N1)C(=O)OCC(C)(C)C2 (racemic) [Example A200] | < 1000 | greater decrease in cell viability |
| COC1CN([C@@H]2c3nc(cs3)-c3ccc4c(c3)c(c(-c3cccnc3[C@H](C)OC)n4CCOC3CCOCC3)CC(C)(C)COC(=O)[C@@H]3CCCN(N3)C(=O)[C@H]2NC(=O)[C@H]2OC[C@@H]2C)C1 (racemic) [Example A201] | < 1000 | greater decrease in cell viability |
| COC1CN([C@@H]2c3nc(cs3)-c3ccc4c(c3)c(c(-c3cccnc3[C@H](C)OC)n4CCOC3CCOCC3)CC(C)(C)COC(=O)[C@@H]3CCCN(N3)C(=O)[C@H]2NC(=O)[C@@H]2OC[C@@H]2C)C1 (racemic) [Example A202] | < 1000 | greater decrease in cell viability |
| CO[C@@H](C)c1ncc(C2CCN(C3COC3)CC2)cc1-c1c2c3cc(ccc3n1CCOC1CCOCC1)-c1csc(n1)[C@@H](N1CC(C)(OC)C1)[C@H](NC(=O)[C@H]1OC[C@@H]1C)C(=O)N1CCC[C@H](N1)C(=O)OCC(C)(C)C2 (racemic) [Example A203] | < 1000 | greater decrease in cell viability |
| CO[C@@H](C)c1ncccc1-c1c2c3cc(ccc3n1CCOC1CCOCC1)-c1csc(n1)[C@@H](N1CC3(CCCCO3)C1)[C@H](NC(=O)[C@H]1[C@H](C)[C@@H]1C)C(=O)N1CCC[C@H](N1)C(=O)OCC(C)(C)C2 (racemic) [Example A206] | < 1000 | greater decrease in cell viability |
| CO[C@@H](C)c1ncccc1-c1c2c3cc(ccc3n1C1CC1)-c1csc(n1)[C@@H](N1CC3(CCC3)C1)[C@H](NC(=O)[C@H]1[C@H](C)[C@@H]1C)C(=O)N1CCC[C@H](N1)C(=O)OCC(C)(C)C2 (racemic) [Example A210] | < 1000 | greater decrease in cell viability |

Further lines, with some results ahead:

| IC50 (K-RasG12V) [nM] | Structure (SMILES) | decrease in cell viability with respect to KRAS G12V (Capan-1) versus wild-type KRAS (A375) (Capan-1 (K-Ras G12V)) |
| --- | --- | --- |
| < 1000 | CO[C@@H](C)c1ncc(C2CCN(C3CC3)CC2)cc1-c1c2c3cc(ccc3n1CCOC1CCOCC1)-c1csc(n1)[C@@H](N1CC3(CCO3)C1)[C@H](NC(=O)C13CC(C)(C1)[C@@H](C)O3)C(=O)N1CCC[C@H](N1)C(=O)OCC(C)(C)C2 (racemic) [Example A183] | greater decrease in cell viability |
| < 1000 | CO[C@@H](C)c1ncc(C2CCN(C3CC3)CC2)cc1-c1c2c3cc(ccc3n1CCOC1CCOCC1)-c1csc(n1)[C@@H](N1CC3(CCO3)C1)[C@H](NC(=O)C13CC(C)(C1)[C@H](C)O3)C(=O)N1CCC[C@H](N1)C(=O)OCC(C)(C)C2 (racemic) [Example A184] | greater decrease in cell viability |
| < 1000 | CO[C@@H](C)c1ncc(C2CCN(C3CC3)CC2)cc1-c1c2c3cc(ccc3n1CCO[C@H]1CCOC(C)(C)C1)-c1csc(n1)[C@@H](N1CCCC1)[C@H](NC(=O)C13CC(C)(C1)[C@H](C)O3)C(=O)N1CCC[C@H](N1)C(=O)OCC(C)(C)C2 (racemic) [Example A190] | greater decrease in cell viability |
| < 1000 | CO[C@@H](C)c1ncc(C2CCN(C3CC3)CC2)cc1-c1c2c3cc(ccc3n1CCOC1CCOCC1)-c1csc(n1)[C@@H](N1CC3(COC3)C1)[C@H](NC(=O)C13CC(C)(C1)[C@@H](C)O3)C(=O)N1CCC[C@H](N1)C(=O)OCC(C)(C)C2 (racemic) [Example A191] | greater decrease in cell viability |
| < 1000 | CO[C@@H](C)c1ncc(C2CCN(C3CC3)CC2)cc1-c1c2c3cc(ccc3n1CCOC1CCOCC1)-c1csc(n1)[C@@H](N1CC3(COC3)C1)[C@H](NC(=O)C13CC(C)(C1)[C@H](C)O3)C(=O)N1CCC[C@H](N1)C(=O)OCC(C)(C)C2 (racemic) [Example A192] | greater decrease in cell viability |
| < 1000 | CO[C@@H](C)c1ncc(C2CCN(C3CC3)CC2)cc1-c1c2c3cc(ccc3n1CCOC1CCOCC1)-c1csc(n1)[C@@H](N1CC3(CCC3)C1)[C@H](NC(=O)C13CC(C1)C(C)(C)O3)C(=O)N1CCC[C@H](N1)C(=O)OCC(C)(C)C2 (racemic) [Example A196] | greater decrease in cell viability |
| < 1000 | CO[C@@H](C)c1ncc(C2CCN(C3CC3)CC2)cc1-c1c2c3cc(ccc3n1CCOC1CCOCC1)-c1csc(n1)[C@@H](N1CC3(CCCOC3)C1)[C@H](NC(=O)[C@@H]1C[C@@H](C)O1)C(=O)N1CCC[C@H](N1)C(=O)OCC(C)(C)C2 (racemic) [Example A197] | greater decrease in cell viability |
| < 1000 | [2H]C([2H])([2H])C12CC(C(=O)N[C@@H]3C(=O)N4CCC[C@H](N4)C(=O)OCC(C)(C)Cc4c(-c5cc(C6CCN(C7CC7)CC6)cnc5[C@H](C)OC)n(CCOC5CCOCC5)c5ccc(cc45)-c4csc(n4)[C@H]3N3CC4(COC4)C3)(C1)O[C@@H]2C (racemic) [Example A204] | greater decrease in cell viability |
| < 1000 | [2H]C([2H])([2H])C12CC(C(=O)N[C@@H]3C(=O)N4CCC[C@H](N4)C(=O)OCC(C)(C)Cc4c(-c5cc(C6CCN(C7CC7)CC6)cnc5[C@H](C)OC)n(CCOC5CCOCC5)c5ccc(cc45)-c4csc(n4)[C@H]3N3CC4(COC4)C3)(C1)O[C@H]2C (racemic) [Example A205] | greater decrease in cell viability |
